{
  "source": "paper PMC10226619",
  "binders": {"B1": {"name": "Ada2 (wild type, recombinant) (protein, UniProt Q02336 1-434)", "chain": "MSNKFHCDVCSADCTNRVRVSCAICPEYDLCVPCFSQGSYTGKHRPYHDYRIIETNSYPILCPDWGADEELQLIKGAQTLGLGNWQDIADHIGSRGKEEVKEHYLKYYLESKYYPIPDITQNIHVPQDEFLEQRRHRIESFRERPLEPPRKPMASVPSCHEVQGFMPGRLEFETEFENEAEGPVKDMVFEPDDQPLDIELKFAILDIYNSRLTTRAEKKRLLFENHLMDYRKLQAIDKKRSKEAKELYNRIKPFARVMTAQDFEEFSKDILEELHCRARIQQLQEWRSNGLTTLEAGLKYERDKQARISSFEKFGASTAASLSEGNSRYRSNSAHRSNAEYSQNYSENGGRKKNMTISDIQHAPDYALLSNDEQQLCIQLKILPKPYLVLKEVMFRELLKTGGNLSKSACRELLNIDPIKANRIYDFFQSQNWM"}, "B2": {"name": "Ada2 ΔSWIRM (without amino acids 349–434, recombinant) (protein, UniProt Q02336)", "chain": "MSNKFHCDVCSADCTNRVRVSCAICPEYDLCVPCFSQGSYTGKHRPYHDYRIIETNSYPILCPDWGADEELQLIKGAQTLGLGNWQDIADHIGSRGKEEVKEHYLKYYLESKYYPIPDITQNIHVPQDEFLEQRRHRIESFRERPLEPPRKPMASVPSCHEVQGFMPGRLEFETEFENEAEGPVKDMVFEPDDQPLDIELKFAILDIYNSRLTTRAEKKRLLFENHLMDYRKLQAIDKKRSKEAKELYNRIKPFARVMTAQDFEEFSKDILEELHCRARIQQLQEWRSNGLTTLEAGLKYERDKQARISSFEKFGASTAASLSEGNSRYRSNSAHRSNAEYSQNYSEN"}},
  "target": "T1, Ada3 with a hexahistidine tag (recombinant) (Saccharomyces cerevisiae) (UniProt P32494)",
  "T1 sequence": "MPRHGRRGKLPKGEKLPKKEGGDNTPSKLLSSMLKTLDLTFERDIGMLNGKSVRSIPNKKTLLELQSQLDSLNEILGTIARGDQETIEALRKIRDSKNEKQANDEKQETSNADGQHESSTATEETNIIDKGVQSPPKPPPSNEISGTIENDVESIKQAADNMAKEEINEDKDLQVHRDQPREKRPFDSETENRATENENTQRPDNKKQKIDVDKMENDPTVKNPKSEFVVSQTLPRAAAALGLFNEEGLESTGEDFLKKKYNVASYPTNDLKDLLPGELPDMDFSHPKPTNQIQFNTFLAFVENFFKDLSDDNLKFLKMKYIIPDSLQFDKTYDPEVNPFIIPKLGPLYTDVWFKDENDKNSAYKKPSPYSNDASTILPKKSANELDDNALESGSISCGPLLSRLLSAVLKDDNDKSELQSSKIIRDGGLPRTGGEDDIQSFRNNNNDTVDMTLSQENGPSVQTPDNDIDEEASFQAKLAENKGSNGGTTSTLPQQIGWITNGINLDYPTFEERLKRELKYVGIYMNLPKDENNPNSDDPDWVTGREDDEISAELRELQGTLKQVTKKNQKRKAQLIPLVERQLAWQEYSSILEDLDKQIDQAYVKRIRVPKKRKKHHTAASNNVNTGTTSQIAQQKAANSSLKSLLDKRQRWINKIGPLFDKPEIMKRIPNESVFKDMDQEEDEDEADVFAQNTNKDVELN",
  "assay": "co-purification (Ni-NTA, anion exchange); Gcn5, Ada2 (WT or ΔSWIRM) and His-tagged Ada3 co-expressed in E. coli; batch Ni-NTA by the hexahistidine tag on Ada3, then Source Q",
  "note": "Results are given in words; binding and its absence hold for the method and conditions named. Some results given as binding are weak or reduced against the parent protein; the word gives no strength. Tags and fused reporters may be left off the sequences shown.",
  "data": [
    {"binder": "B1", "values": [
      {"measurement": "binding", "value": "binds"}
    ]},
    {"binder": "B2", "values": [
      {"measurement": "binding", "value": "binds"}
    ]}
  ]
}
